This is an account of results in paper PMC7903798.

Chains of the proteins cited; added tags and fusions are not shown.
UniProt Q96LD4: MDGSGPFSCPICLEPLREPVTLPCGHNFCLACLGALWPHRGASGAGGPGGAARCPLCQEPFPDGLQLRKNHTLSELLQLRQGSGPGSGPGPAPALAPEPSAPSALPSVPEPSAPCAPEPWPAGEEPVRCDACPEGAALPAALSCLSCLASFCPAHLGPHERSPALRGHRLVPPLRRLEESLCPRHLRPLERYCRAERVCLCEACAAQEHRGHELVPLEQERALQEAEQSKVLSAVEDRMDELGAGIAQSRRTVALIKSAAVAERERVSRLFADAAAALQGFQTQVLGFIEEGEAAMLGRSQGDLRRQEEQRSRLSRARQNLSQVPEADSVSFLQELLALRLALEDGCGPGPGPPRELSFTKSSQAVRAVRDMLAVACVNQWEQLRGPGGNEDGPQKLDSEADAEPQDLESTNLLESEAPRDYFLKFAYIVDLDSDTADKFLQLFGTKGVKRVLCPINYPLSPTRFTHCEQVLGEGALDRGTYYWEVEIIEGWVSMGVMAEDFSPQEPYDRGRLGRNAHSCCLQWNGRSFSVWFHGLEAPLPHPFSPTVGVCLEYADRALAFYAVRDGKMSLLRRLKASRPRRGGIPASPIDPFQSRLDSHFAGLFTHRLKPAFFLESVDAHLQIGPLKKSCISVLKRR

These are yes or no findings as the source states them, for the method shown. In cells and extracts the contact can be indirect. Some entries that bind do so weakly or less than the wild type.

For this assay, the target named is P53 protein, His-tagged (human) (UniProt P04637). As to the kind of experiment: co-IP; His antibody crosslinked to protein A/G agarose; extract of 769-P cells stably overexpressing His-P53 + Flag-TRIM47 (or His-P53 alone); IgG as control; Western blot detection. In general terms: In western blotting, separated proteins are transferred to a membrane and probed.

With “Tripartite motif 47 (TRIM47), Flag-tagged (from UniProt Q96LD4 1-638)”, the binding result is listed as “binds”.
